Measured values as given in publication PMC5353732.
Results are given in words; binding and its absence hold for the method and conditions named. In cells and extracts the contact can be indirect. Some binding calls cover weakened binding; strength is not graded here.

Amino acid sequences for entries named in this document (tags omitted).
UniProt Q04207: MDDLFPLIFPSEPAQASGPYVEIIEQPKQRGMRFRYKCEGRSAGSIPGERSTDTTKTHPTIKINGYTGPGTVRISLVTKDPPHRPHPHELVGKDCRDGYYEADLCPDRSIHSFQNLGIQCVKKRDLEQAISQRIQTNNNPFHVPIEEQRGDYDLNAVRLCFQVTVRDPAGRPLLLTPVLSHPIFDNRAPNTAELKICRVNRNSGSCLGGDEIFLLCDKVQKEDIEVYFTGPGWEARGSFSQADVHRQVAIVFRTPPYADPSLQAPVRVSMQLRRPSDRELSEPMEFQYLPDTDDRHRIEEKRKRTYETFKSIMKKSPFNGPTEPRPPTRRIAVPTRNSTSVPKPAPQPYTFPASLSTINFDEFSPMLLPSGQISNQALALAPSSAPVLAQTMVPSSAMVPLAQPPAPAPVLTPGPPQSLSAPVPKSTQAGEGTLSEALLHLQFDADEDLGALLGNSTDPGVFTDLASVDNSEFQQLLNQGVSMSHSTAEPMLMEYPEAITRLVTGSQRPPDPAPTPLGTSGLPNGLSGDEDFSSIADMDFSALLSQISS
UniProt P37238: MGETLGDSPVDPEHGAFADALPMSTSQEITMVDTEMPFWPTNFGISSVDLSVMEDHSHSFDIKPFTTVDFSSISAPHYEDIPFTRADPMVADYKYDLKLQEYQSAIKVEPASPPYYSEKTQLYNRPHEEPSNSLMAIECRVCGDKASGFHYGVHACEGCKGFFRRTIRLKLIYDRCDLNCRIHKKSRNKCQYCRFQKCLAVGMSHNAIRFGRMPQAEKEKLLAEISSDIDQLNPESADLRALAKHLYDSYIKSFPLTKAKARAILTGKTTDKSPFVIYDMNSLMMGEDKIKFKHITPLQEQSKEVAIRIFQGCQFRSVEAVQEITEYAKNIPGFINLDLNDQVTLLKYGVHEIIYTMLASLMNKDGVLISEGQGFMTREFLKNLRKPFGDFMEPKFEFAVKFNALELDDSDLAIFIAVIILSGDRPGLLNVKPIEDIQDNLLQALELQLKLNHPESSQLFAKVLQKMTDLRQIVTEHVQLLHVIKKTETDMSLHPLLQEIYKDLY

Molecular target: NF-κBp65 (mouse (endogenous in RAW264.7)) (UniProt Q04207)
Assay: co-IP; nuclear lysates of RAW264.7 macrophages, pre-cleared with protein A/G beads; precipitated overnight at 4 °C with anti-NF-κBp65 or anti-PPAR-γ antibody (5 μg), blotted with anti-PPAR-γ or anti-NF-κBp65 antibody respectively; non-immune IgG as negative control; cells also treated with GW1929 (more complex) or GW9662 (less complex)

binding: binds
Substance: Peroxisome proliferator activated receptor γ (PPAR-γ) (from UniProt P37238 1-505)
